Measurements from US20080318246A1, “Deeply quenched enzyme sensors” (The Albert Einstein College of Medicine of Yeshiva …, priority 2007, published 2008).
At least one peptide structure holds a part that was inferred or is arguable (an end, a ring closure or a residue). Ends that are not written are not given here.

Assays:
PKA [1] = target: T1, PKA (Mus musculus, UniProt P05132); assay: Inhibitor IC50, Deep Quench method (Ponceau S/peptide P2); type: biochemical, murine; design: made in house; settings: [ATP]=1 mM
PKA [2] = target: T1, PKA; assay: Inhibitor IC50, standard radioactive ATP method; type: biochemical

GRTGRRNAI-NH2 (C-terminus assumed) [PKI 14-22]
IC50 (PKA [1]): 1100 ± 100 nM
IC50 (PKA [2]): 1600 ± 200 nM
